Test results taken from paper PMC12607630.
These are yes or no findings as the source states them, for the method shown. For part of these data: Binding can be weak; no strength is given.

Sequences of proteins named here, by UniProt entry; tags and fusion partners are left off. A change or cut given only in a name is not applied to a line headed by its entry.
UniProt P0A9A6: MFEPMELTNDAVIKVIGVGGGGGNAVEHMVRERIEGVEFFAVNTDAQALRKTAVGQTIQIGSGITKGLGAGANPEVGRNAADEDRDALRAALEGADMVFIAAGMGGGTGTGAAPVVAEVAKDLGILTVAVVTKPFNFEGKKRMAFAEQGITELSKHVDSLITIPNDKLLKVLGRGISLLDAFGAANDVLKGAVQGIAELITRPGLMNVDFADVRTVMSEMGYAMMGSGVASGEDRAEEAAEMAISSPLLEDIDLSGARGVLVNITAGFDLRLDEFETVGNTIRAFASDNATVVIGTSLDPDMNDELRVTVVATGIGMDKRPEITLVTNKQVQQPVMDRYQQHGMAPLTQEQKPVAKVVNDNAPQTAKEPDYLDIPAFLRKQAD
UniProt P75862: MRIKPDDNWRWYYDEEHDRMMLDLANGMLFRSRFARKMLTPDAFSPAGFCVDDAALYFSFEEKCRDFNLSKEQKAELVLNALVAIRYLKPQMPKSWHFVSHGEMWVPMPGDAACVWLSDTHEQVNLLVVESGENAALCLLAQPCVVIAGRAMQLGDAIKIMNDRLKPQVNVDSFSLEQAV

Assays:
Experiment in all cases: two-hybrid; bacterial two-hybrid in strain LYA1 (BTH101, ftsA^R286W); LB plates with antibiotics, 40 µg/mL X-gal and IPTG, 30°C, about 18 hours
[1] = biological target: FtsZ F285S I323L, FtsZ-T25 fusion (bacterial two-hybrid) (Escherichia coli) (UniProt P0A9A6)
[2] = biological target: FtsZ I323L A376T, FtsZ-T25 fusion (bacterial two-hybrid) (Escherichia coli) (UniProt P0A9A6)
[3] = biological target: FtsZ D360Y, FtsZ-T25 fusion (bacterial two-hybrid) (Escherichia coli) (UniProt P0A9A6)
[4] = biological target: FtsZ F285S A376T, FtsZ-T25 fusion (bacterial two-hybrid) (Escherichia coli) (UniProt P0A9A6)
[5] = biological target: FtsZ^F285S, FtsZ-T25 fusion (bacterial two-hybrid) (Escherichia coli) (UniProt P0A9A6)
[6] = biological target: FtsZ F285S D360Y, FtsZ-T25 fusion (bacterial two-hybrid) (Escherichia coli) (UniProt P0A9A6)
[7] = biological target: FtsZ-T25 fusion (bacterial two-hybrid) (Escherichia coli) (UniProt P0A9A6)
[8] = biological target: FtsZ A376T, FtsZ-T25 fusion (bacterial two-hybrid) (Escherichia coli) (UniProt P0A9A6)
[9] = biological target: FtsZ^I323L, FtsZ-T25 fusion (bacterial two-hybrid) (Escherichia coli) (UniProt P0A9A6)

Measured: binding

ZapC (bacterial two-hybrid fusion) (from UniProt P75862 1-180)
no binding: [1] | [2] | [4] | [6]
binds: all other assays above
